Test: Fluorescence lifetime (TCSPC) of the complexes alone
Format: physicochemical
Conditions: pH 7.40; for α1 / α2: amplitude, complex alone; for τ1 / τ2: fluorescence lifetime of the complex alone

Row | SMILES | α1 | α2 | τ1 | τ2
1 | [Ga+3].[O-]c1cccc2cccnc12.[O-]c1cccc2cccnc12.[O-]c1cccc2cccnc12 [GaQ3, Tris(8-Quinolinolato)gallium(III), reference compound] | 57 ± 5% | 43 ± 5% | 0.54 ± 0.04 ns | 1.23 ± 0.03 ns
2 | [In+3].[O-]c1cccc2cccnc12.[O-]c1cccc2cccnc12.[O-]c1cccc2cccnc12 [InQ3, Tris(8-Quinolinolato)indium(III)] | 75 ± 4% | 25 ± 4% | 0.80 ± 0.03 ns | 1.41 ± 0.07 ns

From article PMC8960621, “Solution speciation and human serum protein binding of indium(III) complexes of 8-hydroxyquinoline, deferiprone and maltol” (Journal of Biological Inorganic Chemistry, 2022)
